One may read the EC50 as the concentration needed to bring the measured effect to its halfway point.

Among the data in article PMC8740778, “Translational Pharmacokinetic–Pharmacodynamic Modeling of NaV1.7 Inhibitor MK-2075 to Inform Human Efficacious Dose” (Frontiers in Pharmacology, 2021) are EC50 values, retold here.

This assay concerns BALB/c male mice. Briefly: Mouse tail flick latency. Type of assay: in vivo. Particulars: total plasma concentration, sigmoidal Emax model, SC dosing, read-out: Mouse tail flick EC50, mean ± SE. A general note: Thermal pain tests record how soon the animal reacts.

As to `COc1cccc(C2(O)CCCCC2CN(C)C)c1` (stereo not shown) [Tramadol], the EC50 stood at 1.13 ± 0.08 µM.
